# Experimental data from PubChem BioAssay AID493014 (National Center for Advancing Translational Sciences (NCATS), 2011).
# This is one part of the list. The main result of the screen is listed elsewhere. These columns were measured beside it and carry no call. Most of these compounds were active or inconclusive in the main read-out, so they are no random draw. Words in brackets tell the shape of the fitted curve; partial curves, single points and poor fits give uncertain potencies.
# Experiment: qHTS Assay to Find Inhibitors of Chronic Active B-Cell Receptor Signaling
# Conditions: ABC-DLBCL IkBa-CBG/CBR reporter, luminescence ratio (green luciferase fused to IkBa over red control in TMD8 lymphoma cells), 4 h
# Outline: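 TMD8 ABC-DLBCL cells carrying doxycycline-inducible green luciferase fused to IkappaBalpha plus unfused red luciferase were exposed to compounds (up to 46 uM) for 4 hrs at 37C. Activity came from the overlap-corrected green/red luminescence ratio.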
# [1] = measured here: IkBa-CBG green luminescence
# [2] = measured here: CBR red luminescence, cell number
Structure (SMILES),AC50 [1],AC50 [2]
CCOC(=O)c1cnc2ccc(OCC)cc2c1NCc1cccnc1,"20.6 µM [rising, partial curve, poor fit]",
CC(=O)N1CCc2cc(S(=O)(=O)CCC(=O)NCc3ccco3)ccc21,,"20 µM [falling, partial curve, poor fit]"
COC(=O)c1ccc(CSc2ccc3nnc(-c4ccccc4)n3n2)o1,,"4.61 µM [falling, full curve, poor fit]"
Cc1c(CN(C)C)c2c(n1Cc1ccccc1)C(=O)c1ccc(Br)cc1-2,,"29.1 µM [falling, single point]"
O=C(NN=C(c1ccccc1)c1ccccn1)c1ccccc1,"18.4 µM [falling, partial curve]","25.9 µM [rising, partial curve, poor fit]"
Cc1cccc(C(=O)O)c1[N+](=O)[O-],,"14.6 µM [rising, partial curve, poor fit]"
Nc1ncc(Br)cc1S(=O)(=O)Nc1cc(C(F)(F)F)cc(C(F)(F)F)c1,,"6.31 µM [falling, full curve]"
O=C(Oc1ccc(Cl)cc1)N1CCOCC1,,"14.1 µM [rising, single point]"
CC(=O)Nc1nc(=O)c2ccccc2s1,,"3.16 µM [falling, partial curve, poor fit]"
COc1nc(C)ccc1-c1noc(-c2ccncc2)n1,,"1.16 µM [rising, full curve, poor fit]"
CCC(=O)NC(c1ccccc1)c1nc2ccccc2[nH]1 (stereo not drawn),,"29.1 µM [rising, partial curve, poor fit]"
COCCN1Cc2cccc(C(=O)NC(C)CCc3ccco3)c2C1=O (stereo not drawn),,"20 µM [falling, partial curve, poor fit]"
O=C(CSc1ccc(Br)cc1)NC1CCS(=O)(=O)C1 (stereo not drawn),,"4.61 µM [falling, full curve]"
O=C(Cc1coc2ccc3ccccc3c12)Nc1nccs1,,"0.116 µM [falling, full curve, poor fit]"
Nc1nc2ccccc2nc1N,,"2.59 µM [falling, partial curve, poor fit]"
CC(C)CC1NC(=S)N(Cc2ccccc2)C1=O (stereo not drawn),,"25.9 µM [falling, partial curve, poor fit]"
O=C(NCCn1cc(SCc2ccccc2)c2ccccc21)c1c(F)cccc1F,,"18.4 µM [falling, single point]"
Nc1nc(Nc2cccc(F)c2)nc2ccccc12,,"0.398 µM [rising, full curve, poor fit]"
Cc1[nH]c(=O)c(C(=O)/C=C/c2ccccc2F)c2c1CCCC2,,"3.16 µM [falling, full curve, poor fit]"
CCOC(=O)C1=C(CC)Nc2ccccc2N=C1NC(=O)Nc1ccccc1OC,,"0.082 µM [rising, full curve, poor fit]"

# Rewritten tab-delimited: part of the list above.
Structure (SMILES)	AC50 [1]	AC50 [2]
O=C(Oc1ccc(Cl)cc1)N1CCOCC1		14.1 µM [rising, single point]
CCOC(=O)C1=C(CC)Nc2ccccc2N=C1NC(=O)Nc1ccccc1OC		0.082 µM [rising, full curve, poor fit]

# Next part:

Structure (SMILES),AC50 [1],AC50 [2]
CN(C)/C=C/C(=O)c1ccc(Cl)c([N+](=O)[O-])c1,"12.6 µM [rising, partial curve, poor fit]","7.94 µM [falling, partial curve]"
COc1ccc(OC)c(-c2cc(C(=O)NCc3cccs3)no2)c1,"16.4 µM [falling, partial curve, poor fit]","8.2 µM [rising, partial curve, poor fit]"
Cc1ccc2sc(N(CCN(C)C)C(=O)/C=C/c3cccs3)nc2c1C,,"28.2 µM [falling, single point]"
CCOc1cccc2sc(N(CCCN(C)C)C(=O)c3ccc(S(=O)(=O)N(C)Cc4ccccc4)cc3)nc12,,"25.1 µM [falling, single point]"
CCNC(=O)COC(=O)c1cc(S(=O)(=O)N2CCCc3ccccc32)ccc1Cl,,"7.94 µM [falling, single point]"
Cn1nc([N+](=O)[O-])nc1Oc1ccc2ccccc2c1,,"13 µM [rising, partial curve, poor fit]"
COc1cc(CN2CCN(C(c3ccccc3)c3ccccc3)CC2)cc(OC)c1OC,,"7.08 µM [falling, full curve, poor fit]"
Clc1cccc(C2CCN(Cc3nc(CC4CC4)no3)C2)c1 (stereo not drawn),,"35.5 µM [rising, single point]"
COc1ccc(S(=O)(=O)/N=C2\C=C(NS(=O)(=O)c3ccccc3)C(=O)c3ccccc32)cc1,,"35.5 µM [falling, single point]"
COc1cccc(NC2=C(C#N)C(=O)NC(c3cccc(OC)c3O)S2)c1 (stereo not drawn),,"11.2 µM [falling, single point]"
CCn1c(SCC(=O)Nc2cccc(O)c2)nc2c1c(=O)n(C)c(=O)n2C,"7.08 µM [falling, partial curve, poor fit]","22.4 µM [rising, partial curve, poor fit]"
CC(=O)Nc1cccc(NC(=S)Nc2ccc(F)c(Cl)c2)c1,,"8.91 µM [rising, partial curve, poor fit]"
CCN(C)c1ccc(/C=N\n2nnnc2N)cc1,,"1.64 µM [rising, partial curve]"
Cc1c(NC(=O)/C(C#N)=C/c2ccc(-c3ccccc3Cl)o2)c(=O)n(-c2ccccc2)n1C,"23.1 µM [rising, partial curve, poor fit]",
CNS(=O)(=O)c1cccc(C(=O)OCC(=O)c2cc(C)n(-c3ccc4c(c3)OCO4)c2C)c1,,"0.82 µM [falling, full curve, poor fit]"
COc1cc(OC)cc(-c2sc3ccc(OC)cc3c2C#CCCO)c1,,"16.4 µM [falling, single point]"
CCOC(=O)c1sc2nc(C)nc(NCc3cccnc3)c2c1C,,"35.5 µM [falling, single point]"
COc1ccc(/C=c2\s/c(=C/C(=O)c3ccc(C)cc3)[nH]c2=O)cc1OC,,"20.6 µM [falling, partial curve, poor fit]"
N#Cc1ccccc1S(=O)(=O)N1CCN(C(=O)CN2C(=O)NC3(CCCC3)C2=O)CC1,,"32.6 µM [falling, partial curve, poor fit]"
